Assay results: doi:10.1101/2023.09.27.559872
No constants are given. Whether binding was seen depends on the method and setting. In cells and extracts the contact can be indirect. Here binding means that the protein was enriched with, or labelled near, the bait; the list need not be complete. Tags and fused reporters may be left off the sequences shown.

Chains of the proteins cited; added tags and fusions are not shown.
UniProt P05198: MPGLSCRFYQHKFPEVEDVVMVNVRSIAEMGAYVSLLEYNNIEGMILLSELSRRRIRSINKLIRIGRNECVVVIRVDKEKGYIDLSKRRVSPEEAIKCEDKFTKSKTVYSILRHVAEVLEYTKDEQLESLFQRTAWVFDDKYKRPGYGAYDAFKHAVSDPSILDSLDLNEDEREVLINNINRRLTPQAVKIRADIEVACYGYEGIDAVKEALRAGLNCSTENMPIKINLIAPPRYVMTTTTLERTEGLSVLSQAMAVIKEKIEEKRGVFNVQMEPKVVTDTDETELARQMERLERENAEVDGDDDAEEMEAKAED
UniProt P60842: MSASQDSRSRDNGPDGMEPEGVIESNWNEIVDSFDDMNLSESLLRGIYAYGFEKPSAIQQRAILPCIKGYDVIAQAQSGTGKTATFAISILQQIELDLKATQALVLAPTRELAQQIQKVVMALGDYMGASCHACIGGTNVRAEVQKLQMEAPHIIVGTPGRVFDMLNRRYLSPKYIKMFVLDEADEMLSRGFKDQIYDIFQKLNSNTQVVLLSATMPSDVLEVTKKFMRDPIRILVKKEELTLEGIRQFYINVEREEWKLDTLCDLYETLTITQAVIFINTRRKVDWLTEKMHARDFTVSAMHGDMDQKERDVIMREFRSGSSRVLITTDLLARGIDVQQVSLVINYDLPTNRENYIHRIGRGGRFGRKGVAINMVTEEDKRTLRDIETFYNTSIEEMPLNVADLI

Molecular target: T1, FLAG-BirA*-IBTK (UniProt Q9P2D0)
T1 sequence: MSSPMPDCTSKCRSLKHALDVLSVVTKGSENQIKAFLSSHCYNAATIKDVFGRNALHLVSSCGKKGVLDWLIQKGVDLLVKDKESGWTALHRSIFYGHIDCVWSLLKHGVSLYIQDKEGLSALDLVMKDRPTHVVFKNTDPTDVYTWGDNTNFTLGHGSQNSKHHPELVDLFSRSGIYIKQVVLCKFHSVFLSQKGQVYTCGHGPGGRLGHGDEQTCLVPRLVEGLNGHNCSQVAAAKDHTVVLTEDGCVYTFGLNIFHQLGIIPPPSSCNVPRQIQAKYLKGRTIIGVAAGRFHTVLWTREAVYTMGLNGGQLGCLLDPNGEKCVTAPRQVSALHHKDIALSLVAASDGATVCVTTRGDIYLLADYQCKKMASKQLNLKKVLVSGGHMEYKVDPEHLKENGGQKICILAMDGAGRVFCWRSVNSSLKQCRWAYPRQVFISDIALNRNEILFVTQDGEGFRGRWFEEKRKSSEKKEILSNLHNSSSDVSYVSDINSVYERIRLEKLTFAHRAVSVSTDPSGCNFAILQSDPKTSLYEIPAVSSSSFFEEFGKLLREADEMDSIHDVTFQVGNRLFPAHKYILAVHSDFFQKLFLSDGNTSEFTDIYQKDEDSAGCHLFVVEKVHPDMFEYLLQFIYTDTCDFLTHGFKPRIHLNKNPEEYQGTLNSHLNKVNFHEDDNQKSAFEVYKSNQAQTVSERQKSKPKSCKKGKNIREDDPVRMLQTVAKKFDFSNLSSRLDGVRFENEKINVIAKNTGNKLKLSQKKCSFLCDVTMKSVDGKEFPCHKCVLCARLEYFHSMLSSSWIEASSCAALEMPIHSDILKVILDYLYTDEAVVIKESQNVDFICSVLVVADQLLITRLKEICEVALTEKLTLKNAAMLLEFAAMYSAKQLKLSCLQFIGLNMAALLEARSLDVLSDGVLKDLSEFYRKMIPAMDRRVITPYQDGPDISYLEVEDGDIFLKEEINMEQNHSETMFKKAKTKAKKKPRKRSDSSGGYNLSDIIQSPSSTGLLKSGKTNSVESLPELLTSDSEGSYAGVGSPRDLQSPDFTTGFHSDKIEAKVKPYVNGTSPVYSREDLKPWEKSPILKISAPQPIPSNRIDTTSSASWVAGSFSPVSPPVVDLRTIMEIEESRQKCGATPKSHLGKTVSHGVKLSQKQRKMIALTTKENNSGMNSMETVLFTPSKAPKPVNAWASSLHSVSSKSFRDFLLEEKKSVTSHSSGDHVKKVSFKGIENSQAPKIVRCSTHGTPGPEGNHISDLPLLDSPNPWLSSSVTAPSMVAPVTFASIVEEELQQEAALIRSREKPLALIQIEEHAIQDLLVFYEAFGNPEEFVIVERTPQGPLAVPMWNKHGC
Assay: affinity purification with mass spectrometry

| binding | Substance |
| --- | --- |
| binds | eIF2α, endogenous (from UniProt P05198 1-315) |
| binds | eIF4A1, endogenous (from UniProt P60842 1-406) |
